The record followed here is PubChem BioAssay AID330 (DTP/NCI, 2004).

The list does not hold the whole screen: it gathers tests that were run many times, whatever their T/C, doses with no T/C, and many T/C values between a quarter and a half above the control. Further doses and runs are listed elsewhere. T/C is the treated group as % of the vehicle group. Some entries give survivors of the animals treated and no T/C: the source files T/C as zero there, which appears to mark a toxic dose or a test without result, not a measured value. Some survivor counts are full or nearly so, which does not show that the dose was tolerated: survival well below the control is almost never listed, so the zero probably covers shortened survival too. Counts of survivors are from the toxicity check (mostly the fifth day) where no day follows; animals may have died later. Schedules are NCI's codes, read here as Q, the interval in days (D) or hours (H), X, the number of doses. Some entries hold several experiments; the results are listed from low to high. Where survival is the endpoint, the PubChem record calls one and a half times the control and up active, and a quarter to a half above the control has no call in these data; cut-offs in other NCI protocols can differ. Counts like (3×) stand for listed records that agree. Some T/C values are followed by the survivors on the day toxicity was checked, most often the fifth; without a count, all were alive then.

The subject of this assay is P388 leukemia ip, CD2F1 mice, survival T/C. Description: NCI In Vivo Anticancer Drug Screen. Data for tumor model P388 Leukemia (intraperitoneal) in CD2F1 (CDF1) mice. Particulars: T/C endpoint: median survival time, higher T/C = longer survival.
Setting [1] is: dose: 1.56 mg/kg/injection, schedule: Q01DX009 (ip), vehicle: Klucel (hydroxypropylcellulose) (HPC).
[2] abbreviates: dose: 6.25 mg/kg/injection, schedule: Q01DX009 (ip), vehicle: Klucel (hydroxypropylcellulose) (HPC).
Setting [3] is: dose: 25.0 mg/kg/injection, schedule: Q01DX009 (ip), vehicle: Klucel (hydroxypropylcellulose) (HPC).
[4] abbreviates: dose: 50.0 mg/kg/injection, schedule: Q01DX009 (ip), vehicle: saline with Tween-80.
Setting [5] is: dose: 100.0 mg/kg/injection, schedule: Q01DX009 (ip), vehicle: saline with Tween-80.
Setting [6] is: dose: 200.0 mg/kg/injection, schedule: Q01DX009 (ip), vehicle: saline with Tween-80.
Where [7] appears, read: dose: 50.0 mg/kg/injection, schedule: Q01DX009 (ip), vehicle: Klucel (hydroxypropylcellulose) (HPC).
[8] abbreviates: dose: 100.0 mg/kg/injection, schedule: Q01DX009 (ip), vehicle: Klucel (hydroxypropylcellulose) (HPC).
Where [9] appears, read: dose: 200.0 mg/kg/injection, schedule: Q01DX009 (ip), vehicle: Klucel (hydroxypropylcellulose) (HPC).
Setting [10] is: dose: 60.0 mg/kg/injection, schedule: Q01DX005 (ip), vehicle: saline with Tween-80.
Where [11] appears, read: dose: 120.0 mg/kg/injection, schedule: Q01DX005 (ip), vehicle: saline with Tween-80.
Where [12] appears, read: dose: 240.0 mg/kg/injection, schedule: Q01DX005 (ip), vehicle: saline with Tween-80.
[13] abbreviates: dose: 200.0 mg/kg/injection, schedule: Q01DX005 (ip), vehicle: saline with Tween-80.
[14] abbreviates: dose: 400.0 mg/kg/injection, schedule: Q01DX009 (ip), vehicle: saline.
Where [15] appears, read: dose: 8.0 mg/kg/injection, schedule: Q01DX009 (ip), vehicle: saline + alcohol.
[16] abbreviates: dose: 400.0 mg/kg/injection, schedule: Q04DX002 (ip), vehicle: saline.
The mark [17] stands for this setting: dose: 3.13 mg/kg/injection, schedule: Q01DX009 (ip), vehicle: Klucel (hydroxypropylcellulose) (HPC).
Where [18] appears, read: dose: 4.0 mg/kg/injection, schedule: Q01DX009 (ip), vehicle: saline + alcohol.

Turning to `COC1C(O)=C2C(=O)OC(C)(O)/C=C/C=C\C=C/C=C/C(c3ccccc3)NC(=O)/C=C/C=C/C=C/C=C/C2(C)C1O` (stereo unspecified), the T/C is 128 % of control under setting [1]; 131 % of control (dose: 3.12 mg/kg/injection, schedule: Q01DX009 (ip), vehicle: Klucel (hydroxypropylcellulose) (HPC)); 126 % of control under setting [2]. Further, the survivor count is reported as 6 of 6 under setting [2] and 5 of 6 under setting [3].
For the compound `C=CCNC(=O)/C=C\C(=O)O`, the T/C is 92, 101 (2×), 108 % of control (dose: 25.0 mg/kg/injection, schedule: Q01DX009 (ip), vehicle: saline with Tween-80); 99, 103, 105, 106 % of control under setting [4]; 101, 101 [5 of 6 alive], 105, 108 % of control under setting [5]; 101 [5 of 6 alive], 105, 106, 120 % of control under setting [6].
Take `CC([NH-])C(=O)O.CC([NH-])C(=O)O.[Cu+2]` (stereo unspecified): the survivor count under setting [2] is given as 6 of 6; the survivor count under setting [3] is recorded as 0 of 6; the survivor count under setting [7] is listed as 0 of 6; the survivor count under setting [8] is 0 of 6; the survivor count under setting [9] was 0 of 6.
As for `C1=C(c2ccccc2)CS1`, the survivor count is recorded as 0 of 6 (dose: 200.0 mg/kg/injection, schedule: Q01DX001 (ip), vehicle: saline with Tween-80) and 0 of 6 (dose: 400.0 mg/kg/injection, schedule: Q01DX001 (ip), vehicle: saline with Tween-80).
As for `COc1ccccc1C1OC2=Nc3cc(C)c(C)cc3NC2C1=O` (stereo unspecified), the survivor count (dose: 60.0 mg/kg/injection, schedule: Q01DX005 (ip), vehicle: Klucel (hydroxypropylcellulose) (HPC)) is on record as 6 of 6.
Regarding `C(=C\c1ccncc1)/c1ccccc1`, the survivor count (dose: 200.0 mg/kg/injection, schedule: Q01DX005 (ip), vehicle: Klucel (hydroxypropylcellulose) (HPC)) is 2 of 6.
In the case of `CCCCCCCCSC(=O)n1cc(F)c(=O)[nH]c1=O`, the T/C is 137 % of control under setting [10] and 132 % of control under setting [11]. Moreover, the survivor count under setting [11] is 6 of 6 and the survivor count under setting [12] is on record as 3 of 6.
`CN1CCC(c2ccccc2)(C(O)(c2ccccc2)c2ccccc2)CC1`: under setting [13], the survivor count is 2 of 6.
On to `NC(=O)c1ncn(C2OC(COP(=O)(O)O)C(O)C2O)n1` (stereo unspecified), for which the survivor count under setting [14] was 2 of 6 and 6 of 6.
For the compound `COc1cccc2c1C(=O)c1c(O)c3c(c(O)c1C2=O)CC(O)(C(C)=O)CC3OC1CC(NCC2(O)OCC(O)C(O)C2O)C(O)C(C)O1` (stereo unspecified), the T/C by setting is: (dose: 25.0 mg/kg/injection, schedule: Q04DX003 (ip), vehicle: water) 126 % of control; (dose: 50.0 mg/kg/injection, schedule: Q04DX003 (ip), vehicle: water) 134 and 137 % of control; (dose: 100.0 mg/kg/injection, schedule: Q04DX003 (ip), vehicle: water) 134 % of control.
Consider `O=[N+]([O-])c1ccc([O][Pb]([c]2ccccc2)([c]2ccccc2)[c]2ccccc2)cc1`, for which the survivor count is on record as 0 of 6 under setting [7], 0 of 6 under setting [8] and 0 of 6 under setting [9].
Regarding `CN(Cc1cnc2nc(N)nc(N)c2n1)c1ccc(C(=O)NC(CCC(=O)OCc2c(Cl)cccc2Cl)C(=O)OCc2c(Cl)cccc2Cl)cc1` (stereo unspecified), for the setting “dose: 1.87 mg/kg/injection, schedule: Q01DX005 (ip), vehicle: saline with Tween-80”, the T/C is 139 % of control. The survivor count reads like this: under setting [10], 6 of 6; under setting [11], 6 of 6; under setting [12], 2 of 6.
For the compound `C/C(=N\NC(N)=O)c1cccc(/C(C)=N/NC(N)=O)n1`, the T/C under setting [5] was 132 and 143 % of control. Further, under setting [6], the survivor count was 1 of 6 and 3 of 6.
Regarding `COc1cc2c(c3oc4c(O)cccc4c(=O)c13)CC(C(C)(O)CCl)O2` (stereo unspecified), the T/C under setting [15] is 132 % of control.
For `CC(=N/N=C(N)N)/C(C)=N\Nc1ccc(Cl)cc1`, the survivor count (dose: 200.0 mg/kg/injection, schedule: Q04DX003 (ip), vehicle: saline) is given as 1 of 6 and the survivor count (dose: 400.0 mg/kg/injection, schedule: Q04DX003 (ip), vehicle: saline) was 0 of 6.
`O=C(O)C(S)Cc1cnc[nH]1` (stereo unspecified): the survivor count under setting [16] is reported as 6 of 6.
Take `CC(=O)OC(OC(C)=O)c1ccc([N+](=O)[O-])c([N+](=O)[O-])c1`: the survivor count (dose: 100.0 mg/kg/injection, schedule: Q01DX010 (ip), vehicle: saline) was 0 of 6.
`CC(C)(COS(C)(=O)=O)COS(C)(=O)=O`: the survivor count (dose: 50.0 mg/kg/injection, schedule: Q01DX009 (ip), vehicle: suspension in saline) is listed as 5 of 6. The T/C under setting [14] is 131 % of control.
In the case of `Cc1c(/C=C/c2oc3ccc(C(=N)N)cc3c2C)oc2ccc(C(=N)N)cc12`, the T/C (dose: 200.0 mg/kg/injection, schedule: Q04DX002 (ip), vehicle: saline) was 137 % of control and the T/C under setting [16] was 127 % of control.
Take `CCOC(=O)C(CNc1ccc(O)cc1)NC(=O)c1ccccc1` (stereo unspecified): under setting [4], the survivor count is recorded as 6 of 6.
Regarding `Clc1ccc2nc(Cl)c3ccccc3c2c1`, the T/C was 126 % of control under setting [1] and 130 % of control under setting [17]. In addition, the survivor count runs as follows: under setting [17], 6 of 6; (dose: 12.5 mg/kg/injection, schedule: Q01DX009 (ip), vehicle: Klucel (hydroxypropylcellulose) (HPC)) 6 of 6.
Regarding `CCOC(=O)NC(=S)Nc1ccn(C)c1`, for the setting “dose: 200.0 mg/kg/injection, schedule: Q04DX003 (ip), vehicle: saline with Tween-80”, the T/C is 128 % of control.
Consider `CC1(C)CO/C(=C/C(=O)c2ccccc2)N1C(=O)c1ccccc1`, for which, under setting [12], the survivor count is 6 of 6.
As to `Cc1cc(NCCN(C(C)C)C(C)C)nc(/N=C(\N)Nc2ccc(Cl)c(C(F)(F)F)c2)n1`, the T/C reads like this: (dose: 20.0 mg/kg/injection, schedule: Q04DX003 (ip), vehicle: Klucel (hydroxypropylcellulose) (HPC)) 126 % of control; (dose: 40.0 mg/kg/injection, schedule: Q04DX003 (ip), vehicle: Klucel (hydroxypropylcellulose) (HPC)) 136 and 140 % of control.
On to `COC(=O)[C@@]12OC[C@]34[C@H]([C@@H](O)[C@@H]1O)[C@@]1(C)CC(=O)C(O)=C(C)[C@@H]1C[C@H]3OC(=O)[C@H](OC(=O)/C=C(/C)C(C)(C)O)[C@@H]24`, for which the T/C was 127 % of control (dose: 1.0 mg/kg/injection, schedule: Q01DX009 (ip), vehicle: saline + alcohol); 100, 128, 141, 151 % of control (dose: 2.0 mg/kg/injection, schedule: Q01DX009 (ip), vehicle: saline + alcohol); 116, 147, 150 % of control under setting [18]; 133 % of control under setting [15]. Moreover, the survivor count is, setting by setting: under setting [18], 3 of 6; (dose: 16.0 mg/kg/injection, schedule: Q01DX009 (ip), vehicle: saline + alcohol) 0 of 6 and 4 of 6; (dose: 32.0 mg/kg/injection, schedule: Q01DX009 (ip), vehicle: saline + alcohol) 0 of 6.
`COC(=O)C1(F)C(=O)NC(=O)NC1O` (stereo unspecified): the survivor count (dose: 60.0 mg/kg/injection, schedule: Q01DX005 (ip), vehicle: saline) is 0 of 6; the survivor count (dose: 120.0 mg/kg/injection, schedule: Q01DX005 (ip), vehicle: saline) is given as 0 of 6; the survivor count (dose: 240.0 mg/kg/injection, schedule: Q01DX005 (ip), vehicle: saline) is reported as 0 of 6.
As to `O=C([Se]c1[se]c(=[Se])[se]c1[Se]C(=O)c1ccccc1)c1ccccc1`, the survivor count runs as follows: (dose: 100.0 mg/kg/injection, schedule: Q01DX005 (ip), vehicle: saline with Tween-80) 6 of 6; under setting [13], 6 of 6.
